# Assay results taken from PubChem BioAssay AID1347076 (National Center for Advancing Translational Sciences (NCATS), 2019).
# Out of some 400,000 compounds screened, about 13,000 (3.2%) were called active. The inconclusive results got no clear call from the source; some entries with a clear call stand among them for comparison. The call rests on the fitted dose curve; in most records, active means well fitted cell-killing curve with a large enough effect; inconclusive means small, poorly fitted or top-dose-only effect, or effect the other way; inactive means flat fitted curve, though single readings scatter. A potency beside an inconclusive call is a rough fit, not a confirmed value.
# Assay: qHTS assay for MDR1-selective chemotherapeutics: Primary screen using the drug-selected MDR subline cells KB-V1; further: nearly all actives have a fitted effect of over 60% in size
# Details: KB-V1 MDR cells viability, CellTiter-Glo, 72 h; activity change, negative = cytotoxicity: at 46.1 µM (top of the series)
# Procedure, shortened: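 Following 72 h at 37 degrees C with compound, KB-V1 cell viability was read by CellTiter-Glo luminescence, medium being phenol-red-free DMEM plus 10% FBS; concentration-response parameters came from normalized, curve-fitted qHTS data.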
# On the % scale 0 is the no-effect control and ±100 the full control effect; potency means the concentration at half of the fitted maximal effect.
Structure (SMILES),Potency,"activity change, negative = cytotoxicity"
Cc1cccc(COCC(Cc2ccccc2)N2CCN(C(=O)c3ccc(C(F)(F)F)cc3)CCC2=O)c1 (configuration not stated),active: 11.6 µM,–
Fc1ccc(NCc2cccn2-c2nnc(N3CCOCC3)s2)cc1,"inconclusive: 10.3 µM [cytotoxic, partial curve, poor fit]",–
Cc1cc2nc(-c3ccc(SCC(=O)N4CCOCC4)nc3)[nH]c2cc1C,"inconclusive: 29.1 µM [cytotoxic, single point]",–
COc1ccc(-c2nn3c(-c4ccccn4)nnc3s2)cc1OC,"inconclusive: 7.31 µM [cytotoxic, partial curve]",–
CCCCCOc1ccc(N2C(=O)CC(N(O)c3ccccc3)C2=O)cc1 (configuration not stated),"inconclusive: 6.51 µM [cytotoxic, partial curve]",–
O=C(Nc1ccc(Cl)c(C(F)(F)F)c1)NC1CC2CCCC(C1)N2Cc1ccccc1 (configuration not stated),"inconclusive: 23.1 µM [cytotoxic, single point]",–
CC(C)[C@H](NC(=O)c1ccc(Cl)cc1Cl)C(=O)OCc1nc2ccsc2c(=O)[nH]1,"inconclusive: 29.1 µM [rising, single point]",–
CC(C)(C)OC(=O)NCCCC[C@H](NC(=O)c1nc[nH]c1C(=O)N1CCN(c2ccccc2)CC1)C(=O)OC(C)(C)C,–,inactive: 0%
Cc1ccc(NC(=O)c2ccc3c(c2)OCCO3)cc1C,"inconclusive: 18.4 µM [cytotoxic, partial curve, poor fit]",–
CCCN(C(=O)C1=COCCO1)c1c(N)n(Cc2ccccc2)c(=O)[nH]c1=O,"inconclusive: 13 µM [rising, partial curve, poor fit]",–
CCCCCCc1cc2cc(-c3nnc(-c4cc(OC)c(OC)c(OC)c4)o3)c(=O)oc2cc1O,"inconclusive: 16.4 µM [cytotoxic, partial curve, poor fit]",–
CC/C(=C(\c1ccc(O)cc1)c1ccc(OCCN(C)C)cc1)c1ccccc1,"inconclusive: 14.6 µM [cytotoxic, single point]",–
Nc1nonc1-n1nnc(C(=O)N/N=C/c2ccccc2O)c1CN1CCCC1,"inconclusive: 18.4 µM [cytotoxic, single point]",–
Cc1ccc(OCCOC(=O)Cn2nc(C)c([N+](=O)[O-])c2C)cc1,"inconclusive: 29.1 µM [rising, single point]",–
N=c1c2c(-c3ccccc3)c(-c3ccccc3)n(Cc3ccco3)c2ncn1CCCO,"inconclusive: 20.6 µM [cytotoxic, partial curve]",–
CCCCn1c(=O)n(C)c(=O)c2c3c(sc21)COC(C)(C)C3,"inconclusive: 20.6 µM [cytotoxic, single point]",–
COc1cc(OC)c(OC)cc1CN1CCN(C(=O)CC(C)C)CC1,–,inactive: -29.8%
CCCN(Cc1cccs1)C(=O)Nc1cc(Cl)c(OC)cc1OC,–,inactive: 2.79%
CCCN(CCC)CCCNC(=O)Cn1cnc2sc(C)c(S(=O)(=O)N3CCCCC3)c2c1=O,"inconclusive: 16.4 µM [rising, single point]",–
COc1cccc(CNC(=O)CCS(=O)(=O)c2ccc3c(c2)NC(=O)CO3)c1,"inconclusive: 29.1 µM [rising, single point]",–
c1ccc(CNc2nc(N3CCN(Cc4ccccc4)CC3)nc3ccccc23)cc1,active: 23.1 µM,–

# Shown tab-delimited: part of the list above
Structure (SMILES)	Potency	activity change, negative = cytotoxicity
Cc1cc2nc(-c3ccc(SCC(=O)N4CCOCC4)nc3)[nH]c2cc1C	inconclusive: 29.1 µM [cytotoxic, single point]	–
COc1ccc(-c2nn3c(-c4ccccn4)nnc3s2)cc1OC	inconclusive: 7.31 µM [cytotoxic, partial curve]	–

# Later entries.

Structure (SMILES),Potency,"activity change, negative = cytotoxicity"
Cc1ccc2sc(NC(=O)CSc3nc(C)cc(C)c3C#N)nc2c1,–,inactive: 3.28%
Cc1ccc(C(C(=O)NCCc2ccccc2)N(C(=O)c2csnn2)C2CC2)cc1 (configuration not stated),"inconclusive: 14.6 µM [cytotoxic, partial curve]",–
C[C@H](NC(=O)c1cc2c([nH]c3ccccc32)c(-c2ccccc2)n1)C(=O)O,"inconclusive: 5.17 µM [rising, full curve]",–
O=C(Nc1nc(-c2cccs2)cs1)c1ccc([N+](=O)[O-])o1,active: 20.6 µM,–
Cc1cc(=O)n2[nH]c(-c3sccc3-n3c(C)ccc3C)cc2n1,"inconclusive: 16.4 µM [cytotoxic, partial curve, poor fit]",–
CC1(C(=O)Nc2cnc3ccccc3c2)CCN1C(=O)C/C=C/c1ccccc1 (configuration not stated),–,inactive: 4.05%
CCOC(=O)C1(Cc2cccc(F)c2)CCN(Cc2c(C)nn(CC)c2C)CC1,–,inactive: -11.1%
CC(NC(=O)c1ccc(Cn2cc([N+](=O)[O-])cn2)o1)c1ccccc1 (configuration not stated),–,inactive: -24.7%
CC(C)(C)c1ccc(OCCC(=O)OCC(=O)NC2CCCCC2)cc1,–,inactive: -12.6%
COC(=O)c1ccc(CSC2=NC[C@@H]3[C@@H]4C(=O)N(C)C(=O)[C@@H]4[C@](C)(C(=O)OC)N23)cc1,"inconclusive: 3.26 µM [rising, full curve, poor fit]",–
O=C(NCCCc1ccccc1)C(=O)NCC1OCCN1S(=O)(=O)c1ccccc1 (configuration not stated),"inconclusive: 23.1 µM [cytotoxic, single point]",–
COc1ccc(C(=O)/C=C2\Sc3ccccc3N2C)cc1,"inconclusive: 0.0052 µM [cytotoxic, full curve, poor fit]",–
COc1cccc(CNC(=O)COC(=O)c2c(C)nn(-c3ccccc3)c2Cl)c1,–,inactive: -10%
Cc1ccc(CNC(=O)c2ccc(NS(=O)(=O)c3cccs3)cc2)cc1,"inconclusive: 25.9 µM [rising, single point]",–
CC1CCN(C(=O)CSc2nc(=O)n3cc(Cl)ccc3n2)CC1,"inconclusive: 16.4 µM [cytotoxic, partial curve, poor fit]",–
CCn1c(=O)n(-c2ccc(C)c(F)c2)c(=O)c2sc3ccccc3c21,–,inactive: 0.227%
COc1ccc(-c2cc(C(=O)Oc3ccccc3)c3cc(C)ccc3n2)cc1,"inconclusive: 29.1 µM [cytotoxic, single point]",–
O=C(N/N=C/c1c[nH]c2ccccc12)c1cccc([N+](=O)[O-])c1,–,inactive: 4.51%
Cc1ccc(-c2csc3nc[nH]c(=S)c23)cc1,"inconclusive: 29.1 µM [cytotoxic, single point]",–
CCCNC(=O)C1(C)CCCN(C(=O)COc2ccc(Cl)cc2Cl)C1 (configuration not stated),"inconclusive: 13 µM [cytotoxic, partial curve]",–
S=C(NCc1ccccc1)N1CCCCC1,"inconclusive: 16.4 µM [cytotoxic, partial curve]",–
